# PubChem BioAssay AID1259308, NCATS – 2017
# Aim: 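Candidate targets for better recombinant protein yield in mammalian cells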 (primary screen)
# Cells: human HEK293 embryonic kidney cells stably expressing firefly luciferase (HEK-CMV-Luc2-Hygro)
# Knock-down reagent: single siRNA against human genes, 0.8 pmol siRNA per well
# Duration: 72 h
# Measurement: 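Reporter luminescence and viable-cell signal on separate replicate plates, given as percent of non-targeting control and median/MAD z-scores, plus per-cell luciferase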
# Scale: total luciferase, z-score and total luciferase, % of control: higher = more reporter protein produced; luciferase per cell, z-score: higher = more reporter output per viable cell; viable cells, % of control: higher = more viable cells
# Active means: 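An siRNA counts as active if its total luciferase robust z-score exceeds 3; genes with two or more such siRNAs out of three were retested with fresh siRNAs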
# Meaning of the calls: active = raised luciferase; inactive = no rise
# This is an unselected part of about 59,000 reagents. Of all reagents, about 1,510 (2.6%) are marked active. 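Calls use total luciferase alone and ignore viability, so some active siRNAs may act by altering cell number.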 A number with no mark means an inactive call. Reagents against one gene are numbered here.
Gene,reagent,"total luciferase, z-score","total luciferase, % of control","luciferase per cell, z-score","viable cells, % of control"
NME9 (NME/NM23 family member 9),1,-0.578,70.4,-0.286,84.8
NME9 (NME/NM23 family member 9),2,-0.0116,81.7,-0.122,94.2
NME9 (NME/NM23 family member 9),3,-0.069,80.5,-0.282,96.9
RPS7 (ribosomal protein S7),1,-2.64,29.4,-1.99,55.5
RPS7 (ribosomal protein S7),2,-2.69,28.4,-1.02,41.4
RPS7 (ribosomal protein S7),3,-2.31,36,-1.66,62.3
FHL5 (four and a half LIM domains 5),1,-0.624,69.5,-0.78,95.4
FHL5 (four and a half LIM domains 5),2,-0.348,75,-0.621,98.6
FHL5 (four and a half LIM domains 5),3,1.27,107,1.12,89.2
TRIP13 (thyroid hormone receptor interactor 13),1,0.194,85.7,0.963,74.4
TRIP13 (thyroid hormone receptor interactor 13),2,1,102,-0.138,118
TRIP13 (thyroid hormone receptor interactor 13),3,0.806,97.9,1.24,79

Entries listed so far whose target name begins with F or f (3):
Gene,reagent,"total luciferase, z-score","total luciferase, % of control","luciferase per cell, z-score","viable cells, % of control"
FHL5 (four and a half LIM domains 5),1,-0.624,69.5,-0.78,95.4
FHL5 (four and a half LIM domains 5),2,-0.348,75,-0.621,98.6
FHL5 (four and a half LIM domains 5),3,1.27,107,1.12,89.2

The list goes on:
Gene,reagent,"total luciferase, z-score","total luciferase, % of control","luciferase per cell, z-score","viable cells, % of control"
MIPEP (mitochondrial intermediate peptidase),1,1.15,105,1.26,84.1
MIPEP (mitochondrial intermediate peptidase),2,0.249,86.8,-0.416,108
MIPEP (mitochondrial intermediate peptidase),3,-0.245,77,-0.2,90.7
NUP107 (nucleoporin 107),1,0.117,84.2,0.611,80.1
NUP107 (nucleoporin 107),2,0.616,94.1,0.961,81.7
NUP107 (nucleoporin 107),3,0.018,82.2,0.475,81.1
"ACTG2 (actin gamma 2, smooth muscle)",1,3.72 (active),156,1.96,104
"ACTG2 (actin gamma 2, smooth muscle)",2,-0.0303,81.3,-0.663,108
"ACTG2 (actin gamma 2, smooth muscle)",3,-1.15,58.9,-0.94,84.4
ITGAE (integrin subunit alpha E),1,-0.168,78.5,-0.216,92.9
ITGAE (integrin subunit alpha E),2,0.426,90.4,0.404,90.8
ITGAE (integrin subunit alpha E),3,1.51,112,1.14,92.5
